Laboratory results reported in paper PMC10013470.

Target: NF-κB (human (endogenous in BXPC-3 and Patu-8988t))
Assay: co-IP; endogenous proteins in RIPA lysates of BXPC-3 and Patu-8988t cells; primary antibody at 4°C overnight, Protein A+G agarose beads, rabbit or mouse IgG as negative control; western blot

B1: Polypeptide N-acetylgalactosaminyltransferase-6 (GALNT6) (enzyme, UniProt Q8NCL4 1-622)
chain: MRLLRRRHMPLRLAMVGCAFVLFLFLLHRDVSSREEATEKPWLKSLVSRKDHVLDLMLEAMNNLRDSMPKLQIRAPEAQQTLFSINQSCLPGFYTPAELKPFWERPPQDPNAPGADGKAFQKSKWTPLETQEKEEGYKKHCFNAFASDRISLQRSLGPDTRPPECVDQKFRRCPPLATTSVIIVFHNEAWSTLLRTVYSVLHTTPAILLKEIILVDDASTEEHLKEKLEQYVKQLQVVRVVRQEERKGLITARLLGASVAQAEVLTFLDAHCECFHGWLEPLLARIAEDKTVVVSPDIVTIDLNTFEFAKPVQRGRVHSRGNFDWSLTFGWETLPPHEKQRRKDETYPIKSPTFAGGLFSISKSYFEHIGTYDNQMEIWGGENVEMSFRVWQCGGQLEIIPCSVVGHVFRTKSPHTFPKGTSVIARNQVRLAEVWMDSYKKIFYRRNLQAAKMAQEKSFGDISERLQLREQLHCHNFSWYLHNVYPEMFVPDLTPTFYGAIKNLGTNQCLDVGENNRGGKPLIMYSCHGLGGNQYFEYTTQRDLRHNIAKQLCLHVSKGALGLGSCHFTGKNSQVPKDEEWELAQDQLIRNSGSGTCLTSQDKKPAMAPCNPSDPHQLWLFV
- binding: binds

No constants are given. Whether binding was seen depends on the method and setting. Binding seen in cells or lysates may run through a third protein. A result given as binding can be weak or reduced; the word gives no strength.
